# Source: the supplement of paper PMC8104966
# Values joined by “and” are separate entries in the source; they are usually repeats but may differ in a detail not shown here. Equal entries are not always repeated. The list shows a part of the results. Single values are uncertain here, since repeats match poorly.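 U2OS cells carrying ACE2 were mixed with U2OS cells carrying full-length spike, and fusion was scored by imaging as the share of nuclei showing both cell types' fluorescent markers. A compound counts as an inhibitory hit when it is non-toxic and its fusion z-score falls below -3, meaning more than three standard deviations below the plate's DMSO wells.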
# System: U2OS ACE2 x SARS-CoV-2 spike co-culture
# Assay: cell-cell fusion (fraction fused) z-score vs plate DMSO control; higher = more fusion
# Settings: 30 µM; 5 h; toxicity class: non-toxic, passed QC
row,SMILES,cell-cell fusion (z-score)
1,CC(C)c1cccc(C(C)C)c1N1C(=O)c2ccc(O)cc2C1=O,inactive: 5.72
2,Cc1ccc(C(=O)Nc2ccc(S(=O)(=O)[O-])c3cc(S(=O)(=O)[O-])cc(S(=O)(=O)[O-])c23)cc1NC(=O)c1cccc(NC(=O)Nc2cccc(C(=O)Nc3cc(C(=O)Nc4ccc(S(=O)(=O)[O-])c5cc(S(=O)(=O)[O-])cc(S(=O)(=O)[O-])c45)ccc3C)c2)c1.[Na+].[Na+].[Na+].[Na+].[Na+].[Na+],inactive: 2.46
3,COC(=O)N[C@@H](C)CNc1nccc(-c2cn(C(C)C)nc2-c2cc(Cl)cc(NS(C)(=O)=O)c2F)n1 [Encorafenib],inactive: 0.608
4,CO[C@H]1[C@@H](O)[C@@H](C)O[C@H](O[C@H]2CCC3(C)C4CCC5(C)[C@@H](C6=CC(=O)OC6)CC[C@]5(O)[C@@H]4CC[C@]3(O)C2)[C@@H]1O (stereo not given in full),inactive: 1.46
5,Cc1cc(-c2ccccc2)nnc1NCCN1CCOCC1.Cl.Cl,inactive: 1.41
6,O=C(CCCc1ccccc1)[O][Na] [4-Phenylbutyrate],inactive: 2.28
7,"CCCCS(=N)(=O)CCC(N)C(=O)O (racemic) [DL-Buthionine-[S,R]-sulfoximine]",inactive: 0.522
8,CCCCCCCCCCCC[C@H](C(=O)O)[C@@H](C)C(=O)O,inactive: 1.75
9,COC1=C(OC)C(=O)C(C/C=C(\C)CC/C=C(\C)CC/C=C(\C)CC/C=C(/C)CC/C=C(\C)CC/C=C(\C)CC/C=C(\C)CC/C=C(\C)CC/C=C(\C)CCC=C(C)C)=C(C)C1=O,inactive: 1.14
10,CC(C)=CCC/C(C)=C/CC/C(C)=C/CC/C(C)=C/CC/C(C)=C/CC/C(C)=C/CC/C(C)=C/CC/C(C)=C/CC/C(C)=C/CO,inactive: 1.48
11,CC[C@@H]1OC(=O)C[C@@H](O)[C@H](C)[C@@H](O[C@@H]2O[C@H](C)[C@@H](O)[C@H](N(C)C)[C@H]2O)[C@@H](CCN2C[C@H](C)C[C@H](C)C2)C[C@@H](C)C(=O)/C=C/C(C)=C\[C@@H]1CO[C@@H]1O[C@H](C)[C@@H](O)[C@@H](OC)[C@H]1OC,inactive: 3.06
12,O=C([O-])CCSC[C@H]1O[C@@H]2O[C@H]3[C@H](O)[C@@H](O)[C@@H](O[C@H]4[C@H](O)[C@@H](O)[C@@H](O[C@H]5[C@H](O)[C@@H](O)[C@@H](O[C@H]6[C@H](O)[C@@H](O)[C@@H](O[C@H]7[C@H](O)[C@@H](O)[C@@H](O[C@H]8[C@H](O)[C@@H](O)[C@@H](O[C@H]9[C@H](O)[C@@H](O)[C@@H](O[C@H]1[C@H](O)[C@H]2O)O[C@@H]9CSCCC(=O)[O-])O[C@@H]8CSCCC(=O)[O-])O[C@@H]7CSCCC(=O)[O-])O[C@@H]6CSCCC(=O)[O-])O[C@@H]5CSCCC(=O)[O-])O[C@@H]4CSCCC(=O)[O-])O[C@@H]3CSCCC(=O)[O-].[Na+].[Na+].[Na+].[Na+].[Na+].[Na+].[Na+].[Na+] [Sugammadex (sodium)],inactive: 2.68
13,CC/C=C\C/C=C\C/C=C\C/C=C\C/C=C\CCCC(=O)OCC [OMEGA-3-ACID ESTERS (EPA shown)],inactive: 2.13
14,O=C(O)CCC(=O)c1ccc(-c2ccccc2)cc1,inactive: 2.67
15,CCc1cc(C(N)=S)ccn1,inactive: 2.56
16,C[C@H]1O[C@@H](n2cc(F)c(=O)[nH]c2=O)[C@H](O)[C@@H]1O [5-fluoro-5'-deoxyuridine],inactive: 4.29
17,CC(=O)OCC(COC(C)=O)OC(C)=O [Triacetin],inactive: 3.41
18,CCCCN1CCCCC1C(=O)Nc1c(C)cccc1C.Cl (stereo not given) [Bupivacaine hydrochloride],inactive: 5.22
19,C/C=C1\[C@H]2C=C(C)C[C@]1(N)c1ccc(=O)[nH]c1C2,inactive: 2.29
20,CCC(C)C(=O)O[C@H]1C[C@H](O)C=C2C=C[C@H](C)[C@H](CC[C@@H](O)C[C@@H](O)CC(=O)[O-])C21.[Na+] (stereo not given in full),inactive: 2
21,"Nc1cc(O)nc(N)n1 [2,4-Diamino-6-pyrimidinone]",inactive: 1.4
22,CC(=O)OCC1=C(C(=O)[O-])N2C(=O)[C@@H](NC(=O)Cc3cccs3)[C@H]2SC1.[Na+] [Cephalothin sodium],inactive: 2.16

row,SMILES,cell-cell fusion (z-score)
1,CCCCC(CC)CNC(=N)NC(=N)NCCCCCCNC(=N)NC(=N)NCC(CC)CCCC.Cl.Cl (stereo not given),active: -12.2
2,CS(=O)(=O)c1cccc(CNc2nc(Nc3ccc4c(c3)CCC(=O)N4)ncc2C(F)(F)F)c1,inactive: 1.55 and inactive: -1.44
3,Cn1ncnc1[C@H]1C2=c3c(cc(F)cc3=N[C@@H]1c1ccc(F)cc1)C(=O)NN2 [Talazoparib],inactive: 0.947
4,CC(C)(Oc1ccc(Cl)cc1)C(=O)O,inactive: 1.09
5,CNCCC(Oc1ccccc1C)c1ccccc1 (stereo not given) [Tomoxetine],inactive: 2.69
6,Cl.N=C(N)NC(=N)NCCc1ccccc1 [Phenformin HCl],inactive: 0.013
7,CN1CCN(CC(=O)N2c3ccccc3C(=O)Nc3cccnc32)CC1.Cl.Cl [Pirenzepine dihydrochloride],inactive: -1.01
8,Cl.c1cncc(C2CCCCN2)c1 (stereo not given),inactive: 1.69
9,O=C(NC1CCCCC1)NC1CCCCC1,inactive: 0.174
10,COc1c2ccoc2cc2oc(=O)ccc12,inactive: 2.87
11,COC(=O)C1=C(C)NC(C)=C([N+](=O)[O-])C1c1ccccc1C(F)(F)F (racemic),inactive: 2.52
12,Cl.CN(C)CC\C=C1\c2ccccc2CCc2ccccc12 [Amitriptyline hydrochloride],inactive: 0.838
13,NC(=O)SC[C@H](N)C(=O)O,inactive: 2.89
14,CC1=C(CC(=O)O)c2cc(F)ccc2/C1=C\c1ccc(S(C)=O)cc1 (stereo not given) [Sulindac],inactive: 1.12
15,CC1=C(CC(=O)O)c2cc(F)ccc2/C1=C\c1ccc(S(C)=O)cc1 (stereo not given),inactive: 1.09
16,C/C=C(/C(=C/C)c1ccc(O)cc1)c1ccc(O)cc1 [Dienestrol],inactive: 4.02
17,Nc1ccc(S(=O)(=O)[O-])cc1.Nc1ccc(S(=O)(=O)[O-])cc1.[Zn+2],inactive: 1.7
18,C=CCOC(Cn1ccnc1)c1ccc(Cl)cc1Cl.O=S(=O)(O)O (stereo not given),inactive: -0.747
19,CC(C)Nc1cccnc1N1CCN(C(=O)c2cc3cc(NS(C)(=O)=O)ccc3[nH]2)CC1.CS(=O)(=O)O [Delavirdine (mesylate)],inactive: 1.01
20,C[Se]CC[C@H](N)C(=O)O.NCCO,inactive: 0.996
21,COc1cc2c(cc1OC)[C@@H]1C(=O)c3ccc4c(c3O[C@@H]1CO2)CC(C(C)C)O4 (stereo not given in full),inactive: 1.24
22,CC(C)CCCC(C)[C@H]1CCC2C3CC=C4C[C@@H](OC(=O)CCC(=O)O)CC[C@]4(C)C3CC[C@@]21C (stereo not given in full),inactive: 3.22

row,SMILES,cell-cell fusion (z-score)
1,N#C/C(=C1/SC[C@@H](c2ccc(Cl)cc2Cl)S1)n1ccnc1 [Luliconazole],inactive: 3.4
2,Oc1cccc(O)c1,inactive: 2.7
3,C[C@]12CC[C@@H]3c4ccc(O)cc4C[C@@H](CCCCCCCCCS(=O)CCCC(F)(F)C(F)(F)F)[C@H]3[C@@H]1CC[C@@H]2O (stereo not given in full) [Fulvestrant],inactive: 2.83
4,NC1C[C@H]1c1ccccc1.O=S(=O)(O)O (stereo not given in full),inactive: 2.09
5,FC(F)(F)c1ccc(/C=C/c2nc(COc3ccc(CCCCn4ccnn4)cc3)co2)cc1 [Mubritinib (TAK 165)],inactive: 1.09
6,Cl.N[C@@H](COP(=O)(O)O)C(=O)O,inactive: 2.58
7,Cl.N[C@@H]1[C@@H](O)[C@H](O)[C@@H](CO)O[C@H]1O,inactive: 0.866
8,CCCNC(C)C(=O)Nc1ccccc1C (stereo not given) [Prilocaine],inactive: 2.05
9,CCOc1cc2ncc(C#N)c(Nc3ccc(OCc4ccccn4)c(Cl)c3)c2cc1NC(=O)/C=C/CN(C)C [Neratinib],inactive: 1.17
10,CS(=N)(=O)CC[C@H](N)C(=O)O (stereo partly drawn) [L-Methionine sulfoximine],inactive: 2.44
11,CS(=N)(=O)CC[C@H](N)C(=O)O (stereo not given in full),inactive: 2.02
12,CC1=C(C(=O)O)N2C(=O)[C@@H](NC(=O)C(N)C3=CCC=CC3)[C@H]2SC1 (stereo not given in full) [Cephradine],inactive: 0.921
13,CCOc1ccc(C(=O)c2ccc(OC)c(O)c2O)cc1,inactive: 2.52
14,CC(=O)OCCN1C(=O)c2c(C)nc3ccc(S(=O)(=O)N4CCOCC4)cc3c2C1=O [Ivachtin],inactive: 1.36
15,CCN1CCN(c2ccc(Nc3cc(N(C)C(=O)Nc4c(Cl)c(OC)cc(OC)c4Cl)ncn3)cc2)CC1,inactive: 2.13
16,CNCC(=O)OCc1cccnc1N(C)C(=O)OC(C)[n+]1cnn(C[C@](O)(c2cc(F)ccc2F)[C@@H](C)c2nc(-c3ccc(C#N)cc3)cs2)c1.O=S(=O)([O-])O (stereo not given in full) [Isavuconazonium sulfate],active: -4.98
17,O=C1Nc2ccc(I)cc2C1=Cc1cc(Br)c(O)c(Br)c1,inactive: 6.38
18,CCOP(=S)(OCC)Oc1cc(C)nc(C(C)C)n1,inactive: 1.12
19,CN(CCCOc1ccc(Cc2ccccc2)cc1)CCC(=O)O.Cl,inactive: 2.81
20,Cl.Clc1ccccc1CN1CCc2sccc2C1,inactive: 4.05
21,COc1cccc(N2CCN(C3=Nc4c(F)cccc4[C@H](CC(=O)O)N3c3cc(C(F)(F)F)ccc3OC)CC2)c1 [Letermovir],inactive: 1.62

# 6 entries from above, with tabs.
row	SMILES	cell-cell fusion (z-score)
8	CCCNC(C)C(=O)Nc1ccccc1C (stereo not given) [Prilocaine]	inactive: 2.05
9	CCOc1cc2ncc(C#N)c(Nc3ccc(OCc4ccccn4)c(Cl)c3)c2cc1NC(=O)/C=C/CN(C)C [Neratinib]	inactive: 1.17
10	CS(=N)(=O)CC[C@H](N)C(=O)O (stereo partly drawn) [L-Methionine sulfoximine]	inactive: 2.44
11	CS(=N)(=O)CC[C@H](N)C(=O)O (stereo not given in full)	inactive: 2.02
12	CC1=C(C(=O)O)N2C(=O)[C@@H](NC(=O)C(N)C3=CCC=CC3)[C@H]2SC1 (stereo not given in full) [Cephradine]	inactive: 0.921
13	CCOc1ccc(C(=O)c2ccc(OC)c(O)c2O)cc1	inactive: 2.52
